Data as given in PMC7018513.
These are yes or no findings as the source states them, for the method shown. Some binding calls cover weakened binding; strength is not graded here. For part of these data: Sequences can lack the tags named with a protein. Each block holds one binder with its values, some of them ahead of it.

Legend:
[1] = molecular target: T1, BBS1 (Bos taurus (endogenous in bovine retina)); test: cryo-EM structure; BBSome:ARL6:GTP class, 3.5 Å; 0.7 mg/ml BBSome (~18 μM) mixed with 2x molar excess of ARL6 (36 μM) and 1 mM GTP, 1 hr at 4°C; both purified
T1 sequence: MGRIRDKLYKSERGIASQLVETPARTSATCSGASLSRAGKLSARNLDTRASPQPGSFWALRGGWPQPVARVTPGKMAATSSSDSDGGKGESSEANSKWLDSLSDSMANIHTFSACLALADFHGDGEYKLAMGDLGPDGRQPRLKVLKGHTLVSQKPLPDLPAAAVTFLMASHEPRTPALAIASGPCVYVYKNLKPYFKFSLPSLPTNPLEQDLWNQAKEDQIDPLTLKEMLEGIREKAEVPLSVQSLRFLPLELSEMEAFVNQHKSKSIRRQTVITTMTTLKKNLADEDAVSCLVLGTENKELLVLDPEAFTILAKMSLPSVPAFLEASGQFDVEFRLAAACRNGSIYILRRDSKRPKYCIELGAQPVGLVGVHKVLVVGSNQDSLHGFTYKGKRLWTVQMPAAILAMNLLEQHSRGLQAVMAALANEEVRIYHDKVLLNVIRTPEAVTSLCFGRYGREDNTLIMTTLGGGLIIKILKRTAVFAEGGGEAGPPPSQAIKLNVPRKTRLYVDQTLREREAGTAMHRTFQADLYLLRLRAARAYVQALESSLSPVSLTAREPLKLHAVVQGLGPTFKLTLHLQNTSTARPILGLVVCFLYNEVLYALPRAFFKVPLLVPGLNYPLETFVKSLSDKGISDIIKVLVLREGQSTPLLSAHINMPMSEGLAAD

[2] = molecular target: T2, BBS4 (Bos taurus (endogenous in bovine retina)) (UniProt Q1JQ97); test: cryo-EM structure; BBSome-only class (no ARL6), 3.1 Å; the sample was 0.7 mg/ml BBSome mixed with 2x molar excess of ARL6 and 1 mM GTP; classes separated by focused classification; both purified
T2 sequence: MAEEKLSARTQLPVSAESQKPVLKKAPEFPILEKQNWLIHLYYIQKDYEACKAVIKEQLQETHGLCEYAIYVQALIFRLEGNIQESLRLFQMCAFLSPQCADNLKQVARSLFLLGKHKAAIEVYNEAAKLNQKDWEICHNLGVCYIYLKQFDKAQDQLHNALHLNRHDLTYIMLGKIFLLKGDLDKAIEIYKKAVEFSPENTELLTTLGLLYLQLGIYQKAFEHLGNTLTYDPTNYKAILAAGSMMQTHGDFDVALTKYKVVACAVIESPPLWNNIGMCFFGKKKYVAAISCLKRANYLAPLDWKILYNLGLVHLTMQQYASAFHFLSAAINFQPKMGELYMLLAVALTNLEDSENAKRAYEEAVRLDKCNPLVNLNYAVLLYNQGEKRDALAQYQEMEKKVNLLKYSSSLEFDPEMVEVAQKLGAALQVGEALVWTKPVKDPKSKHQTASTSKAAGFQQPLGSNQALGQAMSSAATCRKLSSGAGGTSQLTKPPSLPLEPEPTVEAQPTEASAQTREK

binding [1]: binds
B1: Flag-∆16NARL6(Q73L) (enzyme, UniProt Q0IIM2 17-186)
chain: EVHVLCLGLDNSGKTTIINKLKPSNAQSQDIVPTIGFSIQKFKSSSLSFTVFDMSGLGRYRNLWEHYYKEGQAIIFVIDSSDKLRMVVAKEELRTLLNHPDIKHRRIPILFFANKMDLRDALTSVKVSQLLCLEDIKDKPWHICASDAIKGEGLQEGVDWLQDQIQSVKT

binding [2]: binds
B2: BBS18 (protein, UniProt G3N2W1 1-69)
chain: MAETKSMFREVLPKQGQLYVEDITTMVLCKPKLLPLKSLTLEKLEKMQQAAQDTIHQQEMTEKEQKITH

binding [2]: binds
B3: BBS1 (protein, UniProt A0AAA9RX20 1-668)
chain: T1 sequence
